# Source: PubChem BioAssay AID1671195 (Yale University, 2021)
# Aim: 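Genes whose knockdown alters LDL uptake in liver cancer cells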 (primary screen)
# Cell system: human Huh7 hepatoma cells
# Knock-down reagent: siRNA pool against human genes, 18 nM
# Time to read-out: about 2 to 2.5 days of knockdown, then 8 h LDL uptake
# Challenge: DiI-labelled LDL at 30 µg/ml for 8 h, in lipoprotein-deficient serum medium
# Measurement: 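Per-cell DiI-LDL intensity by automated imaging; well means scaled to the plate median and given as a robust z-score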
# Direction: robust z-score: higher = more LDL uptake after knockdown
# Hit rule: 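Active when two or more replicates show a robust z-score above 2 or below -2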
# This is an unselected part of about 22,000 reagents tested. Over the whole deposit, about 1,510 (6.9%) got an active call. 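Active includes knockdowns raising or lowering LDL uptake; positive z-scores mean more uptake, negative mean less.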 No sequences are given here.
target gene,"robust z-score, replicate 1","robust z-score, replicate 2","robust z-score, replicate 3",call
OR6V1 (olfactory receptor family 6 subfamily V member 1),0.382,0.835,0.423,inactive
LOC388515 (retired record),1.76,2.15,-2.14,inactive
CDC42 (cell division cycle 42),-0.89,-0.219,0.615,inactive
"PCDHGB4 (protocadherin gamma subfamily B, 4)",-0.153,0.115,-0.0999,inactive
"GIMAP7 (GTPase, IMAP family member 7)",0.174,0.312,-0.173,inactive
KATNB1 (katanin regulatory subunit B1),-0.282,0.65,0.024,inactive
FARSB (phenylalanyl-tRNA synthetase subunit beta),-0.102,-0.72,-0.457,inactive
CEBPZ (CCAAT enhancer binding protein zeta),-0.519,-0.61,-0.475,inactive
LY96 (lymphocyte antigen 96),1.41,1.6,2.63,inactive
FGL2 (fibrinogen like 2),0.77,1.02,-0.103,inactive
CASP5 (caspase 5),0.662,0.409,1.04,inactive
AKR1C2 (aldo-keto reductase family 1 member C2),-1.92,-1.54,-1.93,inactive
"METTL21A (methyltransferase 21A, HSPA lysine)",-0.565,-0.115,0.616,inactive
PLA2R1 (phospholipase A2 receptor 1),1.53,1.5,1.22,inactive
IQCC (IQ motif containing C),0.889,1.01,0.127,inactive
"SETD1A (SET domain containing 1A, histone lysine methyltransferase)",0.566,0.965,-1.36,inactive
ASTE1 (asteroid structure-specific endonuclease 1),0.543,0.673,0.211,inactive
RASGRP4 (RAS guanyl releasing protein 4),-0.816,0.665,0.195,inactive
PSPC1 (paraspeckle component 1),0.147,-0.134,-0.196,inactive
ZNF561-AS1 (ZNF561 antisense RNA 1),0.0369,0.0211,0.0777,inactive
OVCH2 (ovochymase 2),-0.522,0.376,-0.0276,inactive
RNF212 (ring finger protein 212),0.765,0.827,0.454,inactive
KCNK12 (potassium two pore domain channel subfamily K member 12),0.377,0.976,1.02,inactive
DNAJC30 (DnaJ heat shock protein family (Hsp40) member C30),-1.02,-0.924,-1.37,inactive
LOC145845,-1.09,-0.925,-1.16,inactive
GJA3 (gap junction protein alpha 3),0.43,0.866,0.817,inactive
LOC388476 (retired record),-0.75,-0.998,-0.989,inactive
ATF6B (activating transcription factor 6 beta),-0.0118,-0.311,0.373,inactive
OR2Y1 (olfactory receptor family 2 subfamily Y member 1),-0.0713,0.439,-0.231,inactive
IGFBP6 (insulin like growth factor binding protein 6),-0.252,1.61,0.0487,inactive
ZNF627 (zinc finger protein 627),-1.75,-1.54,-1.05,inactive
LOC401951 (retired record),0.93,1.79,1.22,inactive
NLRP4 (NLR family pyrin domain containing 4),-0.256,0.0585,-0.3,inactive
VAMP8 (vesicle associated membrane protein 8),1.52,0.854,2.17,inactive
DBX1 (developing brain homeobox 1),0.195,0.284,-1.03,inactive
OC90 (otoconin 90),2.66,0.887,1.65,inactive
CEBPG (CCAAT enhancer binding protein gamma),-0.515,-0.401,2.14,inactive
GFRA1 (GDNF family receptor alpha 1),-0.123,1.11,-0.287,inactive
PZP (PZP alpha-2-macroglobulin like),2.64,1.62,2.9,active
PPP4R1 (protein phosphatase 4 regulatory subunit 1),1.31,1.51,1.07,inactive
"RAB2B (RAB2B, member RAS oncogene family)",0.552,-0.167,0.702,inactive
CSRNP3 (cysteine and serine rich nuclear protein 3),0.822,1.08,1.18,inactive
ETV3L (ETS variant transcription factor 3 like),0.39,0.216,0.68,inactive
POMP (proteasome maturation protein),0.579,1.34,0.714,inactive
SMDT1 (single-pass membrane protein with aspartate rich tail 1),0.185,0.535,0.11,inactive
TNFSF11 (TNF superfamily member 11),-0.2,-0.493,-0.334,inactive
